This assay has as its system Candida albicans ATCC 24433, CCM 8320. Nature of the assay: Antifungal microdilution broth, quality standards. Type of assay: cell-based. The conditions noted are these: 24 h, read-out: MIC, visual detection, Candida albicans. On the technique in general: Broth dilution looks for growth in wells or tubes with falling amounts of substance.

Values after ≈ are worked out from the molar mass of the structure shown.

The MIC is the lowest concentration that inhibits growth of the organism.

In the case of `C[C@@H]1[C@H](O)[C@@H](C)/C=C/C=C/C=C/C=C/C=C/C=C/C=C/[C@H](O[C@@H]2O[C@H](C)[C@@H](O)[C@H](N)[C@@H]2O)C[C@@H]2O[C@](O)(C[C@@H](O)C[C@@H](O)[C@H](O)CC[C@@H](O)C[C@@H](O)CC(=O)O[C@H]1C)C[C@H](O)[C@H]2C(=O)O` [amphotericin B], the MIC came out at 0.5 µg/mL (≈ 0.541 µM).

The values are drawn from publication PMC12221116, “Novel Quinazolinones Active against Multidrug‐Resistant Mycobacterium Tuberculosis: Synthesis, Antimicrobial Evaluation, and in Silico Exploration of Penicillin‐Binding Protein 1A as a Potential Target” (Chemmedchem, 2025).
